From article PMC12841798
Changes are numbered by the printed parent chain. Numbers in names are those of the source. Results are given in words; binding and its absence hold for the method and conditions named. In cells and extracts the contact can be indirect. A yes stands for co-enrichment or nearness to the bait. Other partners may have been found. A no says only that the protein was not detected with the bait. Where a sequence is shown, tags or fusion partners need not be part of it.

B1: YWHAG (protein, UniProt P61983 1-247)
chain: MVDREQLVQKARLAEQAERYDDMAAAMKNVTELNEPLSNEERNLLSVAYKNVVGARRSSWRVISSIEQKTSADGNEKKIEMVRAYREKIEKELEAVCQDVLSLLDNYLIKNCSETQYESKVFYLKMKGDYYRYLAEVATGEKRATVVESSEKAYSEAHEISKEHMQPTHPIRLGLALNYSVFYYEIQNAPEQACHLAKTAFDDAIAELDTLNEDSYKDSTLIMQLLRDNLTLWTSDQQDDDGGEGNN
B2: UQCRQ (protein, UniProt Q7TQ16 1-82)
chain: MGREFGNLTRIRHVISYSLSPFEQRAFPHYFSKGIPNVLRRTRERILRVAPPFVLFYLIYTWGNQEFAQSKRKNPAKYENDK
B3: PFKL (protein, UniProt P30835 1-780)
chain: MATVDLEKLRMSGAGKAIGVLTSGGDAQGMNAAVRAVTRMGIYVGAKVFLIYEGYEGLVEGGENIKPANWLSVSNIIQLGGTIIGSARCKAFTTREGRLAAAYNLLQHGITNLCVIGGDGSLTGANIFRNEWGSLLEELVKEGKISESTAQNYAHLSIAGLVGSIDNDFCGTDMTIGTDSALHRIMEVIDAITTTAQSHQRTFVLEVMGRHCGYLALVSALASGADWLFIPEAPPEDGWENFMCERLGETRSRGSRLNIIIIAEGAIDRHGKPISSSYVKDLVVQRLGFDTRVTVLGHVQRGGTPSAFDRVLSSKMGMEAVMALLEATPDTPACVVSLSGNQSVRLPLMECVQVTKDVQKAMDEKRFDEAIQLRGRSFENNWKIYKLLAHQKVSKEKSNFSLAILNVGAPAAGMNAAVRSAVRTGISEGHTVYVVHDGFEGLAKGQVQEVGWHDVAGWLGRGGSMLGTKRTLPKPHLEAIVENLRTYNIHALLVIGGFEAYEGVLQLVEARGRYEELCIVMCVIPATISNNVPGTDFSLGSDTAVNAAMESCDRIKQSASGTKRRVFIVETMGGYCGYLATVTGIAVGADAAYVFEDPFNIHDLKANVEHMTEKMKTDIQRGLVLRNEKCHEHYTTEFLYNLYSSEGRGVFDCRTNVLGHLQQGGAPTPFDRNYGTKLGVKAMLWMSEKLRDVYRKGRVFANAPDSACVIGLRKKVVAFSSVTELKKETDFEHRMPREQWWLNLRLMLKMLAHYRISMADYVSGELEHVTRRTLSIDKGF
B4: αB-crystallin (CryAB), endogenous in neonatal rat ventricular cardiomyocytes (protein, UniProt P23928 1-175)
chain: MDIAIHHPWIRRPFFPFHSPSRLFDQFFGEHLLESDLFSTATSLSPFYLRPPSFLRAPSWIDTGLSEMRMEKDRFSVNLDVKHFSPEELKVKVLGDVIEVHGKHEERQDEHGFISREFHRKYRIPADVDPLTITSSLSSDGVLTVNGPRKQASGPERTIPITREEKPAVTAAPKK
B5: CryAB^WT-tGFP (protein, UniProt P02511 1-175)
chain: B4 chain with S39P, A41S, I61F, M70L, A152V
B6: CryAB^R120G-tGFP (protein, UniProt P02511 1-175)
chain: B4 chain with S39P, A41S, I61F, M70L, R120G, A152V

Each binder was assayed against myeloid leukaemia factor 2 (MLF2), endogenous in neonatal rat ventricular cardiomyocytes (rat (endogenous in NRVCM)) (assay: affinity purification with mass spectrometry; co-IP of MLF2 from NRVCM lysates (RIPA buffer with 1% SDS, 250 µg protein) with MLF2 antibody (B-6) on Dynabeads Protein G, uncoupled beads as negative control, five washes, LC-MS/MS; four conditions: native cells, lacZ, CryAB^WT-tGFP and CryAB^R120G-tGFP overexpression; n = 4 per condition).

Binder | binding
B1 | binds
B2 | binds
B3 | binds
B4 | binds
B5 | binds
B6 | no binding
